Test results published in patent publication US20050187262A1, “Compositions comprising (S)-amlodipine and an angiotensin receptor blocker and methods of their use” (priority 2004, published 2005).
Some results were stated once for a whole list of compounds, not compound by compound.

Tested on: rats
Assay type: in vivo, rat
Conditions: for time post-injection to peak hypotensive effect: 300 μg/kg i.v.; for time post-injection to maximum/peak hypotensive effect: 100 μg/kg i.v.
Protocol: (S)-amlodipine malate and seven ARBs (candasartan, eprosartan, irbesartan, losartan, olmesartan, telmisartan and valsartan) were evaluated. The study was conducted in three parts. Phase I evaluated the time-course of the hypotensive actions of all eight agents ([S]-amlodipine and the seven ARBs). In Phase II, the dose-responsive effects of [S]-amlodipine malate and the seven ARBs were evaluated individually. From this phase of the study, ED30 and ED50 doses of each of the seven ARBs were identified, defined as the dose that produced 30 or 50 percent of the hypotensive effect produced by a rapid i.v. injection (30 μg/kg) of sodium nitroprusside (NTP), a short-acting vasodilator. In Phase III, the dose response to [S]-amlodipine was evaluated in the presence and absence of the ED30 and ED50dose of each of the seven ARBs, with the objective of comparing the extent to which each ARB, at its ED30 or ED50, shifted the dose-response curve of [S]-amlodipine to the left and thus, lowering the apparent ED50 of the calcium channel blocker.
Animals were anesthetized with thiobutabarbital sodium (Inactin®, 150 mg/kg, delivered i.p.), tracheotomized and placed on a thermostatically controlled heating pad (37-38° C.). The jugular vein and the carotid artery were cannulated with PE-50 tubing for drug administration and recording of cardiovascular parameters, respectively. Blood pressure was recorded from the carotid artery by means of a pressure transducer and heart rate was derived electronically from the blood pressure signal. The signal output derived electronically from the arterial pressure was analyzed with a digital computer. The software IOX-16 continuously recorded the data every 5 sec during the entire procedure for each rat. Raw arterial pressure (in mmHg) and heart rate (beats per min), as well as changes in these two parameters relative to baseline or pre-drug levels (for doses other than initial dose), both in raw units (mm Hg or beats per min [bpm]) and as percentage change from baseline were captured and analyzed. The animals were allowed to equilibrate for 15-20 min before any treatment.
Doses are expressed in terms of free active substance. Each treatment was administered in a volume of 1 mL/kg by slow (over 20-30 seconds) i.v. bolus for all test articles, in all three phases.
The data were reported as mean±S.E.M. (standard error of the mean) from 3-5 rats per group. Raw arterial pressure (in mmHg) and heart rate (beats per min), as well as changes in these two parameters relative to baseline or pre-drug levels (for doses other than initial dose), both in raw units (mmHg or beats per min [bpm]) and as percentage change from baseline, were captured and analyzed.

Row | SMILES | time post-injection to peak hypotensive effect [min] | time post-injection to maximum/peak hypotensive effect [min]
1 | CCCCc1nc(Cl)c(CO)n1Cc1ccc(-c2ccccc2-c2nnn[nH]2)cc1 [Losartan, 2-butyl-4-chloro-1-[[2′-(1H-tetrazol-5-yl)[1,1′-biphenyl]-4-yl]methyl]-1H-imidazole-5-methanol] | ≤ 1 | –
2 | CCCc1nc2c(C)cc(-c3nc4ccccc4n3C)cc2n1Cc1ccc(-c2ccccc2C(=O)O)cc1 [Telmisartan, 4′-[(1,4′-dimethyl-2′-propyl[2,6′-bi-1H-benzimidazol]-1′-yl)methyl]-[1,1′-biphenyl]-2-carboxylic acid] | – | ≤ 1
3 | CCCCc1ncc(/C=C(\Cc2cccs2)C(=O)O)n1Cc1ccc(C(=O)O)cc1 [Eprosartan, (E)-α-[[2-butyl-1-[(4-carboxyphenyl)methyl]-1H-imidazol-5-yl]methylene]-2-thiophenepropanoic acid] | – | ≤ 1
4 | CCCCC1=NC2(CCCC2)C(=O)N1Cc1ccc(-c2ccccc2-c2nnn[nH]2)cc1 [Irbesartan, 2-butyl-3-[[2′-(1H-tetrazol-5-yl)[1,1′-bephenyl]-4-yl]methyl]-1,3-diazaspiro[4,4]non-1-en-4-one] | ≤ 1 | –
